Reference: PMC10425210 (The Journal of Clinical Investigation, 2023)
Read-outs that look alike come from different tables or passages of the source. Further values from the same series stand in other lists.

Tested on: SHIV-SF162P3
Type: in vivo, rhesus macaques

## CC(C)(C#Cc1ccc(-c2ccc(Cl)c3c(NS(C)(=O)=O)nn(CC(F)(F)F)c23)c([C@H](Cc2cc(F)cc(F)c2)NC(=O)Cn2nc(C(F)(F)F)c3c2C(F)(F)[C@@H]2C[C@H]32)n1)S(C)(=O)=O [LEN, Lenacapavir]
Animal BM55, 20 mg/kg, week 0 post challenge
  Plasma SHIV RNA: 62 copies per mL
Animal BM55, 20 mg/kg, week 1 post challenge
  Plasma SHIV RNA: 62 copies per mL
Animal BM55, 20 mg/kg, week 2 post challenge
  Plasma SHIV RNA: 74768 copies per mL
Animal BM55, 20 mg/kg, week 3 post challenge
  Plasma SHIV RNA: 1140343 copies per mL
Animal BM55, 20 mg/kg, week 4 post challenge
  Plasma SHIV RNA: 77741 copies per mL
Animal BM55, 20 mg/kg, week 5 post challenge
  Plasma SHIV RNA: 72579 copies per mL
Animal BN33, 20 mg/kg, week 0 post challenge
  Plasma SHIV RNA: 62 copies per mL
Animal BN33, 20 mg/kg, week 1 post challenge
  Plasma SHIV RNA: 62 copies per mL
Animal BN33, 20 mg/kg, week 2 post challenge
  Plasma SHIV RNA: 62 copies per mL
Animal BN33, 20 mg/kg, week 3 post challenge
  Plasma SHIV RNA: 62 copies per mL
Animal BN33, 20 mg/kg, week 4 post challenge
  Plasma SHIV RNA: 62 copies per mL
Animal BN33, 20 mg/kg, week 5 post challenge
  Plasma SHIV RNA: 62 copies per mL
Animal CP67, 75 mg/kg, week 3 post challenge
  Plasma SHIV RNA: 62 copies per mL
Animal CP67, 75 mg/kg, week 4 post challenge
  Plasma SHIV RNA: 62 copies per mL
Animal CP67, 75 mg/kg, week 5 post challenge
  Plasma SHIV RNA: 62 copies per mL
Animal CP67, 75 mg/kg, week 6 post challenge
  Plasma SHIV RNA: 62 copies per mL
Animal CP67, 75 mg/kg, week 7 post challenge
  Plasma SHIV RNA: 62 copies per mL
Animal CP67, 75 mg/kg, week 8 post challenge
  Plasma SHIV RNA: 62 copies per mL
Animal CP67, 75 mg/kg, week 9 post challenge
  Plasma SHIV RNA: 62 copies per mL
Animal CP67, 75 mg/kg, week 10 post challenge
  Plasma SHIV RNA: 62 copies per mL
Animal CP67, 75 mg/kg, week 11 post challenge
  Plasma SHIV RNA: 62 copies per mL
Animal CP67, 75 mg/kg, week 12 post challenge
  Plasma SHIV RNA: 62 copies per mL
Animal CP67, 75 mg/kg, week 13 post challenge
  Plasma SHIV RNA: 62 copies per mL
Animal CP67, 75 mg/kg, week 14 post challenge
  Plasma SHIV RNA: 62 copies per mL
Animal CP67, 75 mg/kg, week 15 post challenge
  Plasma SHIV RNA: 62 copies per mL
Animal CP67, 75 mg/kg, week 16 post challenge
  Plasma SHIV RNA: 62 copies per mL
Animal CP67, 75 mg/kg, week 17 post challenge
  Plasma SHIV RNA: 62 copies per mL
Animal CP67, 75 mg/kg, week 18 post challenge
  Plasma SHIV RNA: 62 copies per mL
Animal V229, 20 mg/kg, week 0 post challenge
  Plasma SHIV RNA: 62 copies per mL
Animal V229, 20 mg/kg, week 1 post challenge
  Plasma SHIV RNA: 62 copies per mL
Animal V229, 20 mg/kg, week 2 post challenge
  Plasma SHIV RNA: 58111 copies per mL
Animal V229, 20 mg/kg, week 3 post challenge
  Plasma SHIV RNA: 299412 copies per mL
Animal V229, 20 mg/kg, week 4 post challenge
  Plasma SHIV RNA: 1919 copies per mL
Animal V229, 20 mg/kg, week 5 post challenge
  Plasma SHIV RNA: 1194 copies per mL
Animal V417, 75 mg/kg, week 3 post challenge
  Plasma SHIV RNA: 62 copies per mL
Animal V417, 75 mg/kg, week 4 post challenge
  Plasma SHIV RNA: 62 copies per mL
Animal V417, 75 mg/kg, week 5 post challenge
  Plasma SHIV RNA: 62 copies per mL
Animal V417, 75 mg/kg, week 6 post challenge
  Plasma SHIV RNA: 62 copies per mL
Animal V417, 75 mg/kg, week 7 post challenge
  Plasma SHIV RNA: 62 copies per mL
Animal V417, 75 mg/kg, week 8 post challenge
  Plasma SHIV RNA: 62 copies per mL
Animal V417, 75 mg/kg, week 9 post challenge
  Plasma SHIV RNA: 62 copies per mL
Animal V417, 75 mg/kg, week 10 post challenge
  Plasma SHIV RNA: 62 copies per mL
Animal V417, 75 mg/kg, week 11 post challenge
  Plasma SHIV RNA: 62 copies per mL
Animal V417, 75 mg/kg, week 12 post challenge
  Plasma SHIV RNA: 62 copies per mL
Animal V417, 75 mg/kg, week 13 post challenge
  Plasma SHIV RNA: 62 copies per mL
Animal V417, 75 mg/kg, week 14 post challenge
  Plasma SHIV RNA: 62 copies per mL
Animal V417, 75 mg/kg, week 15 post challenge
  Plasma SHIV RNA: 62 copies per mL
Animal V417, 75 mg/kg, week 16 post challenge
  Plasma SHIV RNA: 62 copies per mL
Animal V417, 75 mg/kg, week 17 post challenge
  Plasma SHIV RNA: 62 copies per mL
Animal V417, 75 mg/kg, week 18 post challenge
  Plasma SHIV RNA: 62 copies per mL
Animal V426, 75 mg/kg, week 4 post challenge
  Plasma SHIV RNA: 62 copies per mL
Animal V426, 75 mg/kg, week 5 post challenge
  Plasma SHIV RNA: 62 copies per mL
Animal V426, 75 mg/kg, week 6 post challenge
  Plasma SHIV RNA: 62 copies per mL
Animal V426, 75 mg/kg, week 7 post challenge
  Plasma SHIV RNA: 62 copies per mL
Animal V426, 75 mg/kg, week 8 post challenge
  Plasma SHIV RNA: 62 copies per mL
Animal V426, 75 mg/kg, week 9 post challenge
  Plasma SHIV RNA: 62 copies per mL
Animal V426, 75 mg/kg, week 10 post challenge
  Plasma SHIV RNA: 62 copies per mL
Animal V426, 75 mg/kg, week 11 post challenge
  Plasma SHIV RNA: 62 copies per mL
